Data published in paper PMC10504179.

Target: DrLigA (Deinococcus radiodurans) (UniProt Q9RSQ5)
Assay: EMSA
Settings: 5 mM MgSO4, 5 mM MnSO4, 300 µM NAD+, 100 nM DNA, weak at 10-fold protein, none, 5' end of flap not phosphorylated, 20 mM Bis-Tris pH 6.0, 5 mM MgSO4, 5 mM MnSO4, 300 µM NAD+, 25% glycerol, 15 min at room temperature, 6% PAGE, 1x TBE, 4 °C, recombinant protein, protein details: N-terminal His6-TEV, tag cleaved, label: 5'-FAM on F1 (S9)

Question: Does “ATTGAGTGGACAAAGTATCGTAGGGTAGTATTGGTGGATA / TATCCACCAATACTACCCTA / TAACGCTGGGCGATACTTTGTCCACTCAAT” bind?
Answer: binds more weakly

Construct, isoform or probe ends are uncertain for at least one entry. Weaker means in comparison with the reference protein, sequence or condition of that experiment.
